Reference: PubChem BioAssay AID248 (DTP/NCI, 2004)
The list does not hold the whole screen: it gathers tests that were run many times, whatever their T/C, doses with no T/C, and many T/C values between a quarter and a half above the control. Further doses and runs are listed elsewhere. T/C is the treated group as % of the vehicle group. Some entries give survivors of the animals treated and no T/C: the source files T/C as zero there, which appears to mark a toxic dose or a test without result, not a measured value. Some doses without a T/C left all or most animals alive at the check, yet need not have been tolerated: the source hardly ever lists a survival T/C far under the control, and the zero likely stands for such cases as well. Survivors were counted at the toxicity check, usually on the fifth day, unless a day is given; later deaths do not show. Schedules are NCI's codes, read here as Q, the interval in days (D) or hours (H), X, the number of doses. Some schedules carry Z or #; the key to these is not given. Some entries were tested several times; their values stand side by side, smallest first. For survival time, the PubChem record calls one and a half times the control and up active, and a quarter to a half above the control has no call in these data; cut-offs in other NCI protocols can differ. Some T/C values are followed by the survivors on the day toxicity was checked, most often the fifth; where none is given, no animal had died by that day.

Tested on: L1210 leukemia ip in BDF1 mice, survival T/C
Assay: NCI In Vivo Anticancer Drug Screen. Data for tumor model L1210 Leukemia (intraperitoneal) in B6D2F1 (BDF1) mice
Conditions: T/C endpoint: mean survival time, higher T/C = longer survival
[1] = dose: 20.0 mg/kg/injection, schedule: Q01DX Z (oral), vehicle: water
[2] = dose: 100.0 mg/kg/injection, schedule: Q04DX003 (ip), vehicle: saline with Tween-80
[3] = dose: 400.0 mg/kg/injection, schedule: Q04DX002 (ip), vehicle: saline with Tween-80

COc1cc2c3c(c4ccc(OC)c(OC)c4c2cc1OC)CN1CCC[C@@H]1C3
T/C (dose: 2.5 mg/kg/injection, schedule: Q01DX Z (ip), vehicle: water): 127 % of control
T/C (dose: 4.4 mg/kg/injection, schedule: Q01DX Z (ip), vehicle: carboxymethylcellulose (CMC)): 128 % of control
T/C (dose: 4.4 mg/kg/injection, schedule: Q01DX Z (ip), vehicle: other): 126 % of control
T/C (dose: 5.0 mg/kg/injection, schedule: Q01DX Z (im), vehicle: water): 128 % of control
T/C (dose: 5.0 mg/kg/injection, schedule: Q01DX Z (sc), vehicle: water): 133 % of control
T/C (dose: 5.0 mg/kg/injection, schedule: Q02DX Z (ip), vehicle: water): 131 % of control
T/C (dose: 6.6 mg/kg/injection, schedule: Q01DX Z (ip), vehicle: carboxymethylcellulose (CMC)): 128 % of control
T/C (dose: 7.0 mg/kg/injection, schedule: Q01DX Z (ip), vehicle: carboxymethylcellulose (CMC)): 139 % of control
T/C (dose: 7.5 mg/kg/injection, schedule: Q01DX Z (im), vehicle: water): 134 % of control
T/C (dose: 10.0 mg/kg/injection, schedule: Q01DX Z (ip), vehicle: carboxymethylcellulose (CMC)): 101 [4 of 6 alive], 114, 144, 151 % of control
T/C (dose: 10.0 mg/kg/injection, schedule: Q01DX Z (ip), vehicle: other): 141 % of control
T/C (dose: 10.0 mg/kg/injection, schedule: Q01DX Z (ip), vehicle: water): 128 and 142 % of control
T/C (dose: 10.0 mg/kg/injection, schedule: Q01DX Z (oral), vehicle: water): 112, 113, 116, 141 % of control
T/C (dose: 10.0 mg/kg/injection, schedule: Q01DX Z (sc), vehicle: water): 126 % of control
T/C (dose: 10.0 mg/kg/injection, schedule: Q02DX Z (ip), vehicle: water): 135 % of control
T/C (dose: 15.0 mg/kg/injection, schedule: Q01DX005 (iv), vehicle: water): 128 % of control
T/C (dose: 15.0 mg/kg/injection, schedule: Q01DX Z (ip), vehicle: carboxymethylcellulose (CMC)): 87 [5 of 6 alive], 104 [5 of 6 alive], 120 [5 of 6 alive], 138 % of control
survivor count (dose: 15.0 mg/kg/injection, schedule: Q01DX Z (oral), vehicle: water): 6 of 6
T/C (dose: 20.0 mg/kg/injection, schedule: Q01DX005 (iv), vehicle: water): 144 % of control [4 of 6 alive]
survivor count (dose: 20.0 mg/kg/injection, schedule: Q01DX Z (im), vehicle: water): 3 of 6
survivor count (dose: 20.0 mg/kg/injection, schedule: Q01DX Z (ip), vehicle: water): 3 of 6
T/C [1]: 97 % of control
survivor count [1]: 2 of 6, 4 of 6, 6 of 6
survivor count (dose: 20.0 mg/kg/injection, schedule: Q01DX Z (sc), vehicle: water): 6 of 6
T/C (dose: 20.0 mg/kg/injection, schedule: Q02DX Z (ip), vehicle: water): 137 % of control
T/C (dose: 20.0 mg/kg/injection, schedule: Q02DX Z (oral), vehicle: water): 133 % of control
T/C (dose: 20.0 mg/kg/injection, schedule: Q03DX Z (ip), vehicle: water): 131 % of control
survivor count (dose: 24.0 mg/kg/injection, schedule: Q01DX Z (ip), vehicle: water): 3 of 6
survivor count (dose: 30.0 mg/kg/injection, schedule: Q01DX Z (ip), vehicle: water): 0 of 6
survivor count (dose: 30.0 mg/kg/injection, schedule: Q01DX Z (oral), vehicle: water): 0 of 6 and 1 of 6
T/C (dose: 30.0 mg/kg/injection, schedule: Q03DX Z (ip), vehicle: water): 128 and 134 % of control
survivor count (dose: 40.0 mg/kg/injection, schedule: Q01DX005 (iv), vehicle: saline): 0 of 6
survivor count (dose: 40.0 mg/kg/injection, schedule: Q01DX Z (oral), vehicle: water): 0 of 6
survivor count (dose: 40.0 mg/kg/injection, schedule: Q02DX Z (ip), vehicle: water): 3 of 6
survivor count (dose: 40.0 mg/kg/injection, schedule: Q02DX Z (oral), vehicle: water): 2 of 6
T/C (dose: 40.0 mg/kg/injection, schedule: Q03DX Z (ip), vehicle: water): 136 % of control
T/C (dose: 40.0 mg/kg/injection, schedule: Q07DX003 (ip), vehicle: water): 126 % of control [4 of 6 alive]
T/C (dose: 60.0 mg/kg/injection, schedule: Q01DX001 (ip), vehicle: saline): 133 % of control
survivor count (dose: 60.0 mg/kg/injection, schedule: Q01DX005 (iv), vehicle: saline): 0 of 6
survivor count (dose: 60.0 mg/kg/injection, schedule: Q03DX Z (ip), vehicle: water): 0 of 6
T/C (dose: 60.0 mg/kg/injection, schedule: Q07DX Z (ip), vehicle: saline): 138 % of control
T/C (dose: 80.0 mg/kg/injection, schedule: Q01DX001 (ip), vehicle: saline): 136 % of control [5 of 6 alive]
survivor count (dose: 80.0 mg/kg/injection, schedule: Q01DX005 (iv), vehicle: saline): 0 of 6
T/C (dose: 80.0 mg/kg/injection, schedule: Q07DX Z (ip), vehicle: saline): 131 % of control
T/C (dose: 160.0 mg/kg/injection, schedule: Q01DX001 (ip), vehicle: saline): 125 % of control [5 of 6 alive]

O=C(Nc1ccc(Cl)cc1Cl)P(=O)(O)c1ccccc1
survivor count (dose: 400.0 mg/kg/injection, schedule: Q04DX002 (ip), vehicle: Klucel (hydroxypropylcellulose) (HPC)): 2 of 3

CC(=O)OC1CC(OC2C(O)CC(OC3C(O)CC(OC4CCC5(C)C(CCC6C5CCC5(C)C(C7=CC(=O)OC7)C(O)CC65O)C4)OC3C)OC2C)OC(C)C1OC1OC(CO)C(O)C(O)C1O (centres undefined)
survivor count (dose: 100.0 mg/kg/injection, schedule: Q01DX001 (ip), vehicle: carboxymethylcellulose (CMC)): 1 of 6

CSc1ccc(NC(=O)Oc2ccccn2)cc1
survivor count [2]: 6 of 6
survivor count (dose: 400.0 mg/kg/injection, schedule: Q01DX009 (ip), vehicle: saline with Tween-80): 2 of 3

[CH3][Pb]([CH3])([CH3])[NH]C#N
survivor count (dose: 20.0 mg/kg/injection, schedule: Q04DX003 (ip), vehicle: saline): 1 of 6
survivor count [2]: 0 of 6
survivor count (dose: 200.0 mg/kg/injection, schedule: Q04DX003 (ip), vehicle: saline with Tween-80): 0 of 6
survivor count (dose: 400.0 mg/kg/injection, schedule: Q04DX003 (ip), vehicle: saline with Tween-80): 0 of 6

O=C(CCl)c1ccc(O)c(O)c1
survivor count (dose: 25.0 mg/kg/injection, schedule: Q01DX009 (ip), vehicle: saline): 6 of 6
survivor count (dose: 50.0 mg/kg/injection, schedule: Q04DX003 (ip), vehicle: saline): 4 of 6
survivor count (dose: 100.0 mg/kg/injection, schedule: Q04DX003 (ip), vehicle: saline): 1 of 6
survivor count (dose: 200.0 mg/kg/injection, schedule: Q04DX003 (ip), vehicle: saline): 1 of 6

COc1cc(/C=C2\CCOC2=O)cc(/C=C2\CCOC2=O)c1O
survivor count (dose: 50.0 mg/kg/injection, schedule: Q04DX002 (ip), vehicle: saline with Tween-80): 3 of 3
survivor count (dose: 200.0 mg/kg/injection, schedule: Q04DX002 (ip), vehicle: saline with Tween-80): 3 of 3
survivor count [3]: 3 of 3

O=C(Nc1cccc(Cl)c1)c1cc(N=Nc2ccc([N+](=O)[O-])cc2Cl)ccc1O
survivor count (dose: 400.0 mg/kg/injection, schedule: Q04DX003 (ip), vehicle: Klucel (hydroxypropylcellulose) (HPC)): 0 of 6

NC(Cc1cnc(N=Nc2ccc(N=Nc3ncc(CC(N)C(=O)O)[nH]3)cc2)[nH]1)C(=O)O (centres undefined)
survivor count (dose: 200.0 mg/kg/injection, schedule: Q01DX009 (ip), vehicle: Klucel (hydroxypropylcellulose) (HPC)): 3 of 3

CCCCC(C)C1(CC)C(=O)NC(=O)NC1=O (centres undefined)
survivor count (dose: 150.0 mg/kg/injection, schedule: Q01DX001 (ip), vehicle: saline): 2 of 6
survivor count (dose: 300.0 mg/kg/injection, schedule: Q01DX001 (ip), vehicle: saline): 0 of 6

O=C(O)c1cc2ccccc2cc1O.Oc1cccc2cccnc12.[Cu]
survivor count (dose: 2.0 mg/kg/injection, schedule: Q01DX015 (ip), vehicle: carboxymethylcellulose (CMC)): 6 of 6
survivor count (dose: 4.0 mg/kg/injection, schedule: Q01DX015 (ip), vehicle: carboxymethylcellulose (CMC)): 6 of 6
survivor count (dose: 16.0 mg/kg/injection, schedule: Q01DX015 (ip), vehicle: carboxymethylcellulose (CMC)): 2 of 6

CC(=O)ON1C(=O)c2cccc3cccc(c23)C1=O
survivor count [3]: 1 of 3

C/C=C/CC1(CCC(C)C)C(=O)NC(=O)NC1=O
survivor count (dose: 300.0 mg/kg/injection, schedule: Q01DX001 (ip), vehicle: acetone): 3 of 6
